Some entries share one result that the patent states for a list of compounds.
Experiment: Blood levels of orally administered antibiotics
Type: in vivo, rat
Settings: antibiotic given in drinking water; detection limit of assay 1 μM
Text: Dahl S rats are an established model of increased susceptibility to injury from myocardial ischemia/reperfusion (Baker, J. et al. “Resistance to myocardial ischemia in five rat strains: is there a genetic component of cardioprotection?” Am. J. Physiol. Heart Circ. Physiol. 278, H1395-H1400, 2000, Shi, Y. et al. “Increased resistance to myocardial ischemia in the Brown Norway vs. Dahl S rat: role of nitric oxide synthase and Hsp90.” J. Mol. Cell. Cardiol. 38(4):625-635, 2005). […] A minimum treatment time of 48 h with vancomycin was needed to decrease IS. A return to control values for myocardial IS at 72 h following discontinuation of vancomycin was observed (FIG. 5). To determine whether this decrease in IS was a direct effect of antibiotic present in the coronary vasculature, blood levels of vancomycin were measured. The concentration of vancomycin in blood was below detection limits of the assay used (1 μM). […]
Infarct size was measured in rats treated with the antibiotic mixture using the method described in example 3. […] To determine whether the decrease in infarct size was a direct effect of antibiotics present in the coronary vasculature, blood levels of streptomycin, neomycin, bacitracin and polymyxin B were measured. […]

Substance | concentration in blood
neomycin | < 1 µM
polymyxin B | < 1 µM
